Like-named read-outs stand apart in the source and are kept apart here. No constants are given. Whether binding was seen depends on the method and setting. For part of these data: Binding seen in cells or lysates may run through a third protein. Some results given as binding are weak or reduced against the parent protein; the word gives no strength. For part of these data: Sequences can lack the tags named with a protein. One block for each molecule: values may come before it.
Experiments:
[1] = biological target: T1, Flag-TRIB2-Full (UniProt Q92519); assay: co-IP; 293T cells transfected with Flag-tagged TRIB2 constructs for 48 h; total lysate in NP-40 buffer (50 mM Tris-Cl pH 7.4, 150 mM NaCl, 1 mM EDTA, 1% NP-40, 0.5% SDS) incubated with Anti-Flag M2 Affinity Gel at 4°C for 2 h; immunoblot of endogenous partners
T1 sequence: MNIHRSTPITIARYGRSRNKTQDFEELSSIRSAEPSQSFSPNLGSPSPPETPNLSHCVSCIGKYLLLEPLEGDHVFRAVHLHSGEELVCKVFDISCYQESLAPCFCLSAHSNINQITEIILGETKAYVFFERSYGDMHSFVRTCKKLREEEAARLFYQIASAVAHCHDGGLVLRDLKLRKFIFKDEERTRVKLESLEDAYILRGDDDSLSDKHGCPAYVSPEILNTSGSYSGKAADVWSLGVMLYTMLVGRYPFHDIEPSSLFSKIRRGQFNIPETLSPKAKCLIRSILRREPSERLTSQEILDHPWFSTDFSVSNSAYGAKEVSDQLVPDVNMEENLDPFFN

Amino acid sequences for entries named in this document (tags omitted).
UniProt Q8NHY2: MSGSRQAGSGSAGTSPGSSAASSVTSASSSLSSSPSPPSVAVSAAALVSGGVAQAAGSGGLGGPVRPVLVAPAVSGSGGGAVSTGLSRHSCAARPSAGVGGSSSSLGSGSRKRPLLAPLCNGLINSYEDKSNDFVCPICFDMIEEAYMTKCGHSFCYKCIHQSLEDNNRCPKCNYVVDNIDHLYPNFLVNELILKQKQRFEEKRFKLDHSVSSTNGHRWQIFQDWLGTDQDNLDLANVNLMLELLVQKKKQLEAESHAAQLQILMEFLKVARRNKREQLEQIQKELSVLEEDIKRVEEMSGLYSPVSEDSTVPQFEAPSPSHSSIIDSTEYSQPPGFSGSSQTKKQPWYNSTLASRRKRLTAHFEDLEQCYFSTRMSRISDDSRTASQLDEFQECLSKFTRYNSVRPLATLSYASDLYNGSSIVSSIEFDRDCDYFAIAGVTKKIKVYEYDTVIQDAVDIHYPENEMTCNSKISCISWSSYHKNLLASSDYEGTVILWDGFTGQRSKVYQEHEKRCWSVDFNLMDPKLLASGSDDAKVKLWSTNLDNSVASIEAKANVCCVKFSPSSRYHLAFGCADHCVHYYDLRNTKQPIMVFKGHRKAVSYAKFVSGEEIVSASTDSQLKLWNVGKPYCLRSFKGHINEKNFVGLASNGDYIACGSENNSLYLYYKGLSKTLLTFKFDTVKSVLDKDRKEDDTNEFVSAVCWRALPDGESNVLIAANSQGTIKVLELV
UniProt P25963: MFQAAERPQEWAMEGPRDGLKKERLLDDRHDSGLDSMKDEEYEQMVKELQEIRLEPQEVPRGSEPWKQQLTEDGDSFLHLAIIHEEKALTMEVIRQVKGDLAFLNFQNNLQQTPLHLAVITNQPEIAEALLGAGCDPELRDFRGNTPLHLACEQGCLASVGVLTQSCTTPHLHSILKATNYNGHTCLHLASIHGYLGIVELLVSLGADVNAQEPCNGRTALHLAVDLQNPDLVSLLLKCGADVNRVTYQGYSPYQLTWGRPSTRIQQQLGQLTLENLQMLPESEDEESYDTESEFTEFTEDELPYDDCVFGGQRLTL

[2] = biological target: RFWD2 (human (endogenous in 293T)) (UniProt Q8NHY2); assay: co-IP; endogenous proteins; whole-cell lysate of 293T cells immunoprecipitated with RFWD2 antibody overnight at 4°C, protein G/A beads 2 h at 4°C; immunoblot
[3] = biological target: RFWD2 (human (endogenous in 293T)) (UniProt Q8NHY2); assay: as above; remark: listed apart in the source
[4] = biological target: IκB-α (human (endogenous in 293T)) (UniProt P25963); assay: co-IP; endogenous proteins; 293T lysate immunoprecipitated with anti-IκB-α antibodies overnight at 4°C, protein G/A beads 2 h at 4°C; immunoblot
[5] = biological target: IκB-α, eukaryotic expressed and purified (UniProt P25963); assay: co-IP; eukaryotic expressed and purified TRIB2 and IκB-α proteins; precipitated with IκB-α antibodies; both purified

Molecule: p-IκB-α (from UniProt P25963 1-317)
binding [1]: binds

Molecule: IκB-α (from UniProt P25963 1-317)
binding [2]: binds | binding [1]: binds

Further lines, results first:

binding [3]: binds | binding [4]: binds
B1: TRIB2 (protein, UniProt Q92519 1-343)
chain: T1 sequence

binding [5]: binds
B2: TRIB2, eukaryotic expressed and purified (protein, UniProt Q92519 1-343)
chain: T1 sequence

— article PMC8503262
